Test results: PubChem BioAssay AID493014 (National Center for Advancing Translational Sciences (NCATS), 2011)
Among all 340,000 compounds or so, about 170 (0.05%) were called active. The shares of active, inactive and inconclusive entries below differ from those in the screen. Calls come from the whole dose curve; as a rule, active = well fitted inhibition curve with a large enough effect in the signal ratio, with a control signal flat (not every such curve was filed as active); inconclusive = small, poorly fitted or top-dose-only effect, or effect the other way, or a change in a side signal; inactive = flat fitted curve, though single readings scatter; the % refers to the signal ratio. Where the call is inconclusive, the potency comes from a doubtful curve fit.

Experiment: qHTS Assay to Find Inhibitors of Chronic Active B-Cell Receptor Signaling;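 for activity change, negative = inhibition: plate controls were basal doxycycline-induced cells for no effect and cells given 10 µM MG132 for full effect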
Conditions: ABC-DLBCL IkBa-CBG/CBR reporter, luminescence ratio (green luciferase fused to IkBa over red control in TMD8 lymphoma cells), 4 h; activity change, negative = inhibition: at 46.1 µM (top of the series)
Procedure, shortened: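 Cell line TMD8 (human ABC DLBCL), stably expressing tet-inducible CBG68-IkBa fusion and CBR; IMDM/0.5% FBS; cpd up to 46 uM; dox induction, 4 h, 37C/5% CO2; dual luminescence; green/red ratio; MG132 control.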
Potency is the fitted concentration of half-maximal effect.

Row | Compound | Potency | activity change, negative = inhibition
1 | O=C(CSc1nc2ccccc2c(=O)[nH]1)Nc1ccc(C(=O)O)cc1 | inconclusive: 3.98 µM [rising, partial curve, poor fit] | –
2 | COc1cccc(NC(=O)CSC2=Nc3ccccc3C3=NC(CC(=O)NCc4ccccc4OC)C(=O)N23)c1 (configuration not stated) | – | inconclusive: -10.4%
3 | O=c1oc2ccc(Cl)cc2cc1-c1cn2c(n1)sc1ccccc12 | inconclusive: 22.4 µM [falling, partial curve, poor fit] | –
4 | CCOC(=O)N1CCN(S(=O)(=O)N2CCCC(C(=O)NCc3ccc(OC)cc3OC)C2)CC1 (configuration not stated) | – | inconclusive: -0.363%
5 | CC(C)(C)C1C/C(=C/c2ccco2)C(=O)/C(=C/c2ccco2)C1 (configuration not stated) | – | inconclusive: 4.13%
6 | CCCC(=O)NNC(=O)c1ccoc1C | – | inconclusive: -29.4%
7 | Cn1ncc(Oc2ccc([N+](=O)[O-])cc2)c(Cl)c1=O | – | inactive
8 | CN(C)C(=S)Nc1nc2ccccc2s1 | inconclusive: 3.16 µM [falling, partial curve, poor fit] | –
9 | O=C(Cn1nc(Cc2cccnc2)c2ccccc2c1=O)NCC1COc2ccccc2O1 (configuration not stated) | – | inconclusive: 7.44%
10 | CCC(C)(C)NC(=O)C(c1ccc(C)o1)N(Cc1cccs1)C(=O)Cn1nnc2ccccc21 (configuration not stated) | – | inactive
11 | O=C(/C=C\Nc1ccc(Br)cc1)c1cccnc1 | inconclusive: 23.1 µM [falling, single point] | –
12 | CCN(C(=O)COc1ccc(C(C)=O)cc1)c1cccc2ccccc12 | inconclusive: 20.6 µM [falling, partial curve, poor fit] | –
13 | CC[n+]1c(C=C2C=C(C)OC(C)=C2)sc2ccccc21 | – | inactive
14 | Cc1cc(NC(=O)C(C)SCC(=O)OCC(=O)N(Cc2ccccc2)C(C)(C)C)no1 (configuration not stated) | inconclusive: 12.6 µM [rising, partial curve, poor fit] | –
15 | CCCC(=O)n1nc(-c2cccnc2)nc1NCc1ccccc1 | – | inactive
16 | [O-][n+]1c2ccccc2c2n1CCN1CCOC21c1ccc(Cl)cc1 (configuration not stated) | – | inactive
17 | CCC(C)N(C(=O)CN1C(=O)NC2(CCc3ccccc32)C1=O)C1CCS(=O)(=O)C1 (configuration not stated) | – | inconclusive: 0.139%
18 | CC/C(=C/c1ccccc1)c1cccc2[nH]c3c(OC)cccc3c12 | inconclusive: 10 µM [rising, single point] | –
19 | CCc1cccc2c(C(=O)CN3C(=O)NC4(CCc5ccccc54)C3=O)c[nH]c12 (configuration not stated) | inconclusive: 25.9 µM [falling, single point] | –
20 | COc1ccc(NC(=O)C2CCC(CNc3c(N4CCOCC4)c(=O)c3=O)CC2)cc1Cl (configuration not stated) | – | inconclusive: -1.33%
21 | c1ccc(CN2CCC3(CC2)Nc2ccccc2CO3)cc1 | – | inconclusive: -4.71%

Row | Compound | Potency | activity change, negative = inhibition
22 | O=c1cc(CO)[nH]cc1OCc1ccccc1 | – | inactive
23 | O=C(NCC1CCCCN1)c1cc(OCC(F)(F)F)ccc1OCC(F)(F)F (configuration not stated) | – | inconclusive: -16.7%
24 | Cc1cccc([C@@H]2[C@@H]3C(=O)N(Cc4ccccc4)C(=O)[C@@H]3[C@]3(C)C(=O)N(c4cccc(Cl)c4)C(=O)N23)c1 | – | inconclusive: 5.39%
25 | CNc1ccccc1C(=O)OC(C)C(=O)Nc1ccc(S(=O)(=O)N2CCCC2)cc1 (configuration not stated) | – | inconclusive: -17.2%
26 | CCOc1ccccc1N(CC(=O)NC1CCCC1)S(=O)(=O)c1ccc(C)cc1 | – | inactive
27 | CC(C)c1c(O)nc(SCCN(C)C)[nH]c1=O | – | inconclusive: 3.42%
28 | CCc1ccc(NC(=O)CSc2nc3ccccc3nc2N2CCCC2)cc1 | – | inactive
29 | O=C(c1cc(-c2cccc(O)c2)on1)N1CCCCCC1 | – | inconclusive: -3.8%
30 | Nc1c(S(=O)(=O)c2cc(Cl)ccc2Cl)c2nc3ccccc3nc2n1CCN1CCOCC1 | – | inconclusive: 6.02%
31 | O=C(Nc1nc2ccccc2s1)c1ccc(Cl)s1 | inconclusive: 20.6 µM [falling, partial curve] | –
32 | Cc1ccc(CN(Cc2ccccc2)C(=S)Nc2ccccc2C)o1 | – | inactive
33 | COc1ccc2nc(NC(=O)C3COc4ccccc4O3)sc2c1 (configuration not stated) | – | inconclusive: -18.5%
34 | Cn1c(CNC(=O)OC(C)(C)C)nnc1SCC(=O)N1CCOCC1 | – | inactive
35 | Cc1cc(=O)oc2cc(Oc3ncccn3)ccc12 | – | inconclusive: -6.27%
36 | COc1ccc(C(=O)NC(=S)Nc2cccc(NC(=O)c3ccco3)c2)cc1[N+](=O)[O-] | – | inactive
37 | CC(C)Cn1c(C(C)C)nc([N+](=O)[O-])c1S(=O)(=O)c1ccc(F)cc1 | inconclusive: 10 µM [falling, partial curve] | –
38 | CCCn1cc(CN2CCC(n3nccc3NC(=O)C(OC)c3ccccc3)CC2)c(C)n1 (configuration not stated) | – | inactive
39 | Cc1cc(NC(=O)COC(=O)c2c(C)nn(-c3ccccc3)c2C)no1 | – | inconclusive: -20%
40 | CC(C)(C)c1ccc(C(=O)NNC(=S)NC(=O)c2cccnc2)cc1 | inconclusive: 22.4 µM [falling, single point] | –
41 | Cn1ccnc1SCC(=O)Nc1cccc2ccccc12 | – | inconclusive: 3.86%
42 | CCOc1ccc(-c2cc(C(=O)N/N=C(\C)c3cccnc3)c3ccccc3n2)cc1 | – | inactive

Row | Compound | Potency | activity change, negative = inhibition
43 | CCN1C(=O)[C@@H]2Cc3c([nH]c4ccccc34)C(c3ccc(OC)cc3)N2C1=S (some centres not stated) | – | inconclusive: -15.8%
44 | Cc1cc(C)c2c(=O)n(CC(=O)Nc3cccc(Cl)c3C)sc2n1 | – | inactive
45 | O=C(CSc1ncn(-c2ccccc2)n1)c1cccs1 | inconclusive: 15.8 µM [falling, single point] | –
46 | Fc1cccc(/C=N/NC(=S)Nc2ccccc2Cl)c1 | – | inconclusive: -3.25%
47 | CCOC(=O)c1sc(Nc2nc(C)cc(OC)n2)nc1C | inconclusive: 0.708 µM [rising, full curve, poor fit] | –
48 | O=[N+]([O-])c1cc(S(=O)(=O)N2CCCC2)ccc1SCCO | – | inconclusive: 15.1%
49 | Cc1cccc(NC(=S)N(CCN(C)C)Cc2cc3cccc(C)c3[nH]c2=O)c1 | – | inactive
50 | Cc1ccc(SCC(=O)c2c(C)nc3ccccn23)cc1 | – | inconclusive: 3.67%
51 | CCCCCCNC(=O)N1C/C=C\C(c2ccc(OC)cc2)N(Cc2ccc(F)cc2)C(=O)C1 (configuration not stated) | – | inactive
52 | Cc1ccc(-c2csc3ncnc(N4CCN(C(=O)c5ccccc5)CC4)c23)cc1 | inconclusive: 32.6 µM [falling, partial curve, poor fit] | –
53 | Cc1cc(NC(=O)CSc2nc3ccccc3n2CC(=O)N2CC(C)CC(C)C2)no1 (configuration not stated) | – | inactive
54 | Cc1ccc(C(=O)Nc2ccc(CC(=O)O)cc2)o1 | – | inconclusive: 0.366%
55 | S=C(NCc1ccccc1)NNc1nc2ccccc2[nH]1 | – | inactive
56 | N#Cc1c(Cl)c(Cl)c2nnc(-c3ccc(Br)cc3)n2c1Cl | inconclusive: 22.4 µM [falling, single point] | –
57 | CC1=C(C(=O)Nc2cc(C(=O)NCCC(C)C)ccc2C)SCCO1 | – | inconclusive: -0.14%
58 | COC(=O)c1sccc1NC(=S)N1CCN(c2cccc(C)c2C)CC1 | – | inactive
59 | CCN1C(=O)/C(=C/N(C)c2ccccc2)OC1=S | inconclusive: 29.1 µM [falling, single point] | –
60 | Cc1nc(NC(=O)c2ccc(Br)o2)ccc1Br | – | inconclusive: 0.666%
61 | Cc1ccc(S(=O)(=O)NCC(c2ccco2)N2CCc3ccccc3C2)cc1 (configuration not stated) | – | inactive
62 | O=c1cc(-c2ccc(Cl)cc2)[nH][nH]1 | inconclusive: 14.6 µM [falling, partial curve] | –
63 | CC(CNC(=O)COC(=O)c1cccs1)c1ccccc1 (configuration not stated) | – | inconclusive: 0.149%

Two entries drawn at random from the list so far:
Row | Compound | Potency | activity change, negative = inhibition
56 | N#Cc1c(Cl)c(Cl)c2nnc(-c3ccc(Br)cc3)n2c1Cl | inconclusive: 22.4 µM [falling, single point] | –
53 | Cc1cc(NC(=O)CSc2nc3ccccc3n2CC(=O)N2CC(C)CC(C)C2)no1 (configuration not stated) | – | inactive

(cont.)

Row | Compound | Potency | activity change, negative = inhibition
64 | O=C(CCCC(=O)OCC(Cl)=C(Cl)Cl)Nc1ccc(F)cc1 | inconclusive: 29.1 µM [falling, single point] | –
65 | Cc1ccc(SC(CC(=O)c2ccc(F)cc2)C(=O)O)cc1 (configuration not stated) | – | inconclusive: -7%
66 | CC1CCCCC1NC(=O)c1cc2c(s1)CS(=O)(=O)C2 (configuration not stated) | – | inconclusive: -9.58%
67 | COC(=O)Cc1csc(Nc2ccccc2)n1 | – | inconclusive: -3.52%
68 | c1ccc2c(c1)nc(Nc1ccc(N3CCCCC3)cc1)c1nncn12 | – | inconclusive: 3.67%
69 | COc1cccc(NC(=O)CSc2nnc(-c3cc(-c4ccccn4)nc4ccccc34)o2)c1 | – | inconclusive: 20.2%
70 | Cc1ccc(Cl)cc1NC(=O)c1cc(S(=O)(=O)N2CCOCC2)cn1C | inconclusive: 3.55 µM [falling, partial curve, poor fit] | –
71 | Cn1nnc2cc(C(=O)Nc3ccc4ccccc4c3)ccc21 | – | inconclusive: 5.92%
72 | COc1ccc(Nc2nc(C)cc(C)c2C(N)=O)cc1OC | – | inconclusive: 3.97%
73 | COc1ccc(Cl)cc1NC(=O)CSc1nc(=O)[nH]c2c1CCC2 | – | inconclusive: 17.8%
74 | Cc1nc2ncnn2c(C)c1CCC(=O)NC(C)c1ccc2c(c1)OCCO2 (configuration not stated) | inconclusive: 11.2 µM [falling, partial curve] | –
75 | CCC(=O)c1ccccc1OCCN1CCN(CC)CC1 | – | inconclusive: -0.0904%
76 | CCOc1ccc(S(=O)(=O)n2nc(C)cc2C)c2ccccc12 | – | inactive
77 | O=C(O)c1cc(S(=O)(=O)O)ccc1O | – | inactive
78 | O=C(NNC(=O)c1ccc(F)cc1F)c1ccc2c(c1)OCO2 | inconclusive: 12.6 µM [falling, partial curve] | –
79 | CCOC(=O)c1ccccc1NS(=O)(=O)c1ccc(OCC)cc1 | inconclusive: 11.6 µM [falling, partial curve, poor fit] | –
80 | Cc1cc(C)n2ncc(C(=O)NC3CCCCC3)c2n1 | – | inconclusive: 7.49%
81 | CC(C)OC(=O)c1cc(C(=O)c2cc(Br)ccc2O)coc1=N | – | inconclusive: -4.18%
82 | O=C(c1ccco1)N1CCN(C(=O)c2ccc(CS(=O)c3cccc(Cl)c3)o2)CC1 (configuration not stated) | – | inactive

Among those listed so far, these have an aryl methoxy group:
Row | Compound | Potency | activity change, negative = inhibition
2 | COc1cccc(NC(=O)CSC2=Nc3ccccc3C3=NC(CC(=O)NCc4ccccc4OC)C(=O)N23)c1 (configuration not stated) | – | inconclusive: -10.4%
4 | CCOC(=O)N1CCN(S(=O)(=O)N2CCCC(C(=O)NCc3ccc(OC)cc3OC)C2)CC1 (configuration not stated) | – | inconclusive: -0.363%
18 | CC/C(=C/c1ccccc1)c1cccc2[nH]c3c(OC)cccc3c12 | inconclusive: 10 µM [rising, single point] | –
20 | COc1ccc(NC(=O)C2CCC(CNc3c(N4CCOCC4)c(=O)c3=O)CC2)cc1Cl (configuration not stated) | – | inconclusive: -1.33%
33 | COc1ccc2nc(NC(=O)C3COc4ccccc4O3)sc2c1 (configuration not stated) | – | inconclusive: -18.5%
36 | COc1ccc(C(=O)NC(=S)Nc2cccc(NC(=O)c3ccco3)c2)cc1[N+](=O)[O-] | – | inactive
43 | CCN1C(=O)[C@@H]2Cc3c([nH]c4ccccc34)C(c3ccc(OC)cc3)N2C1=S (some centres not stated) | – | inconclusive: -15.8%
47 | CCOC(=O)c1sc(Nc2nc(C)cc(OC)n2)nc1C | inconclusive: 0.708 µM [rising, full curve, poor fit] | –
51 | CCCCCCNC(=O)N1C/C=C\C(c2ccc(OC)cc2)N(Cc2ccc(F)cc2)C(=O)C1 (configuration not stated) | – | inactive
69 | COc1cccc(NC(=O)CSc2nnc(-c3cc(-c4ccccn4)nc4ccccc34)o2)c1 | – | inconclusive: 20.2%
72 | COc1ccc(Nc2nc(C)cc(C)c2C(N)=O)cc1OC | – | inconclusive: 3.97%
73 | COc1ccc(Cl)cc1NC(=O)CSc1nc(=O)[nH]c2c1CCC2 | – | inconclusive: 17.8%
